Where a name gives a salt, the structure may show the parent alone. Some entries share one result that the patent states for a list of compounds.
Tested on: neonatal mouse cardiac fibroblasts (alphaMHC-CFP reporter)
Test: alpha-MHC-CFP reporter, FACS for CFP positive cells (fibroblast to cardiomyocyte conversion)
Format: cell-based

COc1cc2nc(N3CCCN(C)CC3)nc(NC3CCN(Cc4ccccc4)CC3)c2cc1OC [BIX-01294, 2-(Hexahydro-4-methyl-1H-1,4-diazepin-1-yl)-6,7-dimethoxy-N-[1-(phenylmethyl)-4-piperidinyl]-4-quinazolinamine trihydrochloride]
percentage of CFP positive cells (inhibition of histone methylation without miRNA-mediated reprogramming, BIX-01294 1 μM day 2 to day 6, siRNA 40 nM, FACS at 6 days): 2.5-3.5% | percentage of CFP positive cells (population converted to cardiomyocytes) (inhibition of histone methyltransferases in addition to miRNA-mediated reprogramming): 5-7%

Source: US10130637B2, “Inhibition of histone methyltransferase for cardiac reprogramming” (Duke University, priority 2012, dated 2018)
